# The supplement of paper PMC6411743
# ± gives the standard deviation of the averaged measurements. This is one part of the list.
# Tests used:
# Assay in all cases: NP40-soluble protein abundance relative to vehicle (solubility fold change) (ratio); higher = more soluble protein in presence of GTP
# [1] = biological target: T1, ANKMY2 (UniProt Q8IV38)
# T1 sequence (whole entry): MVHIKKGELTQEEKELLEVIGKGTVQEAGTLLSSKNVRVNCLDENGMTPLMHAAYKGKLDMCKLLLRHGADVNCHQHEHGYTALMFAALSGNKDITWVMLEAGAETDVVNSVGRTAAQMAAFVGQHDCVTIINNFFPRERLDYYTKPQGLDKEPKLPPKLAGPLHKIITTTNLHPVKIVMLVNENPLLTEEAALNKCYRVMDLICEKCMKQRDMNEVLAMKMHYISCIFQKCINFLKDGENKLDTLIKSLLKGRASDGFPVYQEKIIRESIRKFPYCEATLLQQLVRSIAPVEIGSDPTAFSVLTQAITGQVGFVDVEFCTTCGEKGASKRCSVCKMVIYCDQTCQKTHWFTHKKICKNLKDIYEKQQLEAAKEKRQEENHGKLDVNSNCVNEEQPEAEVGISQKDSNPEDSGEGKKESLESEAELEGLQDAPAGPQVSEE
# How it was run: (§1)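 Across three independent experiments, values are fold changes against the detergent-processed vehicle for each replicate, based on vsn-normalised intensities. The samples were Jurkat crude lysate treated with eight concentrations (0.1 to 10 mM) for 10 min at room temperature and then 3 min at 37 °C. Lysate was solubilised with 0.8% NP40 and benzonase, ultracentrifuged, and the supernatant analysed by TMT-labelled LC-MS/MS.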
# [2] = biological target: T2, C2orf69 (UniProt Q8N8R5)
# T2 sequence (whole entry): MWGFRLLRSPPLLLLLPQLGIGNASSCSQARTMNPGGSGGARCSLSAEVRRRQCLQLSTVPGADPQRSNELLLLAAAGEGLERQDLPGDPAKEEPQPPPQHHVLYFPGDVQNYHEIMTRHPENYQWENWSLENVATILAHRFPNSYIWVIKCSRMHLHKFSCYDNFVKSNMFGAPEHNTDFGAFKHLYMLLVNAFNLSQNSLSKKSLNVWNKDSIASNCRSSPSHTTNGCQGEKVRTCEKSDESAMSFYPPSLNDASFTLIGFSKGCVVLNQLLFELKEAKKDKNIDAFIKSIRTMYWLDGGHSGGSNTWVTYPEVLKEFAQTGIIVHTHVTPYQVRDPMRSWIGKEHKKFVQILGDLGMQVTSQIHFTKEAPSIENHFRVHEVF
# How it was run: as §1
# [3] = biological target: T3, CBR4 (UniProt Q8N4T8)
# T3 sequence (whole entry): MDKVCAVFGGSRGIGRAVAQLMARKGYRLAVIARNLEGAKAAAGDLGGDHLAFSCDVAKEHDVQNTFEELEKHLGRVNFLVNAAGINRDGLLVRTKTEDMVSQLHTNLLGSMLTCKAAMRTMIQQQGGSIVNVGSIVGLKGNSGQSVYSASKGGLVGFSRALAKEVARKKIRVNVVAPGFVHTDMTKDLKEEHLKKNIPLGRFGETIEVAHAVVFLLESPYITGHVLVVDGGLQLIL
# How it was run: as §1
# [4] = biological target: T4, COG1 (UniProt Q8WTW3)
# T4 sequence (whole entry): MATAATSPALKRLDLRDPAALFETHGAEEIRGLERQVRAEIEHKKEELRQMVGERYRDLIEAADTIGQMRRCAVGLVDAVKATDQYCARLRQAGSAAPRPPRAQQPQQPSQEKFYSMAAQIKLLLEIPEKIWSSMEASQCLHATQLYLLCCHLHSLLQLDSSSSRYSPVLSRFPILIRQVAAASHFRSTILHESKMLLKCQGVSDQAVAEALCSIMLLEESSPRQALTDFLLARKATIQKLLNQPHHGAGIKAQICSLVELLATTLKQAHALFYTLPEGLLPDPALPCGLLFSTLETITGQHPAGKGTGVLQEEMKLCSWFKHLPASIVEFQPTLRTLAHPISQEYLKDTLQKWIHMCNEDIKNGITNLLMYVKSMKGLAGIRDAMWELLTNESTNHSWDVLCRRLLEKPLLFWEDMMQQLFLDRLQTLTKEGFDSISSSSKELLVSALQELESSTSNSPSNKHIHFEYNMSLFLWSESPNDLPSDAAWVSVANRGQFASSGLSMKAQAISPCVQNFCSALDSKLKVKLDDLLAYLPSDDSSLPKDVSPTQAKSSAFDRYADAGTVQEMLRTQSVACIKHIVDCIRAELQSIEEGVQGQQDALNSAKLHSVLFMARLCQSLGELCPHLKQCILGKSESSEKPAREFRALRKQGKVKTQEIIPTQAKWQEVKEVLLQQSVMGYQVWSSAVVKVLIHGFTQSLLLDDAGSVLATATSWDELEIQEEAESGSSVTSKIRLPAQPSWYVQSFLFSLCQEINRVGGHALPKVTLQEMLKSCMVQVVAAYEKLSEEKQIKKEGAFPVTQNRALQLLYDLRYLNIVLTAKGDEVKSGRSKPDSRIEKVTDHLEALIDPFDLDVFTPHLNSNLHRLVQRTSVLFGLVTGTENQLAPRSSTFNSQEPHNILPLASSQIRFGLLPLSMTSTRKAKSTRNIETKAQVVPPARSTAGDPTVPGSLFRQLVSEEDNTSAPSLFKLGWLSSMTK
# How it was run: as §1
# [5] = biological target: T5, NHLRC2 (UniProt Q8NBF2)
# T5 sequence (whole entry): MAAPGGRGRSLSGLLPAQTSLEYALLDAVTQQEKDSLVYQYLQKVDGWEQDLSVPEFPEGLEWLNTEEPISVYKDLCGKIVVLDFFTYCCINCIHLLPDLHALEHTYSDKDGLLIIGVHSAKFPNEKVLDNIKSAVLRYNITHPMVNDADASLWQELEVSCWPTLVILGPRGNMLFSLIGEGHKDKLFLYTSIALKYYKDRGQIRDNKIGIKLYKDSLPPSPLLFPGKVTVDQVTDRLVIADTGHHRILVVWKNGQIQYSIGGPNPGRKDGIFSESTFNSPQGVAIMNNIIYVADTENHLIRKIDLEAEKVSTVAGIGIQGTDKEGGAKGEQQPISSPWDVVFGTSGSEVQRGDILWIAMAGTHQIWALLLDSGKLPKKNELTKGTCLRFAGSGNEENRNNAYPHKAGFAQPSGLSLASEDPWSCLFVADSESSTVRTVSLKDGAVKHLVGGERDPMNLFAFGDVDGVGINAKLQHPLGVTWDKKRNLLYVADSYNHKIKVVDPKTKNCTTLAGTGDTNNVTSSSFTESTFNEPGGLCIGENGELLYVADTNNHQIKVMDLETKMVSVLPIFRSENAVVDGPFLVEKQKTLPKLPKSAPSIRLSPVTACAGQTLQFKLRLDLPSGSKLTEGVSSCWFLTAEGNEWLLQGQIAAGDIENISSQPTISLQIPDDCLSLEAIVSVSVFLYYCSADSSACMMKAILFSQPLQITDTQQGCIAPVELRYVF
# How it was run: as §1
# [6] = biological target: T6, PLD3 (UniProt Q8IV08)
# T6 sequence (whole entry): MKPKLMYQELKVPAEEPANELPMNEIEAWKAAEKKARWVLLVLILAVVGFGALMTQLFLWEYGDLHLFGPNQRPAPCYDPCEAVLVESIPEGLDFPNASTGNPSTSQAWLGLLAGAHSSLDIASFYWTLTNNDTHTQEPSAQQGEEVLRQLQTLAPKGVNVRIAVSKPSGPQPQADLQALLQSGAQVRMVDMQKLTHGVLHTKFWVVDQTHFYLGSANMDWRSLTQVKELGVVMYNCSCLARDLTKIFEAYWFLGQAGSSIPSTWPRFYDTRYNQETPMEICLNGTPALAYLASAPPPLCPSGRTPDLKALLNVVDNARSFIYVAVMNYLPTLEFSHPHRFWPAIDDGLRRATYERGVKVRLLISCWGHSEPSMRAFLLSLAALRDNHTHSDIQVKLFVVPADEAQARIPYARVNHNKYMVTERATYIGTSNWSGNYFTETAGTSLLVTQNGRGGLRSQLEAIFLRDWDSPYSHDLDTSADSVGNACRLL
# How it was run: as §1
smiles,measurement,setting,value
Nc1nc2c(ncn2[C@@H]2O[C@H](COP(=O)(O)OP(=O)(O)OP(=O)(O)O)[C@@H](O)[C@H]2O)c(=O)[nH]1 [guanosine triphosphate],NP40-soluble protein abundance,[1]; concentration: 0.1mM,0.967 ± 0.012
same,NP40-soluble protein abundance,[1]; concentration: 0.5mM,0.984 ± 0.037
same,NP40-soluble protein abundance,[1]; concentration: 1mM,0.891 ± 0.03
same,NP40-soluble protein abundance,[1]; concentration: 2mM,0.891 ± 0.013
same,NP40-soluble protein abundance,[1]; concentration: 4mM,0.87 ± 0.021
same,NP40-soluble protein abundance,[1]; concentration: 6mM,0.904 ± 0.016
same,NP40-soluble protein abundance,[1]; concentration: 8mM,0.838 ± 0.027
same,NP40-soluble protein abundance,[1]; concentration: 10mM,0.887 ± 0.027
same,NP40-soluble protein abundance,[2]; concentration: 0.1mM,1.104 ± 0.0071
same,NP40-soluble protein abundance,[2]; concentration: 0.5mM,1.09 ± 0.077
same,NP40-soluble protein abundance,[2]; concentration: 1mM,0.917 ± 0.045
same,NP40-soluble protein abundance,[2]; concentration: 2mM,1.01 ± 0.043
same,NP40-soluble protein abundance,[2]; concentration: 4mM,0.988 ± 0.064
same,NP40-soluble protein abundance,[2]; concentration: 6mM,0.897 ± 0.037
same,NP40-soluble protein abundance,[2]; concentration: 8mM,0.892 ± 0.13
same,NP40-soluble protein abundance,[2]; concentration: 10mM,0.913 ± 0.066
same,NP40-soluble protein abundance,[3]; concentration: 0.1mM,1.01 ± 0.062
same,NP40-soluble protein abundance,[3]; concentration: 0.5mM,0.97 ± 0.11
same,NP40-soluble protein abundance,[3]; concentration: 1mM,0.915 ± 0.1
same,NP40-soluble protein abundance,[3]; concentration: 2mM,0.938 ± 0.046
same,NP40-soluble protein abundance,[3]; concentration: 4mM,0.918 ± 0.086
same,NP40-soluble protein abundance,[3]; concentration: 6mM,0.887 ± 0.055
same,NP40-soluble protein abundance,[3]; concentration: 8mM,0.885 ± 0.056
same,NP40-soluble protein abundance,[3]; concentration: 10mM,0.896 ± 0.066
same,NP40-soluble protein abundance,[4]; concentration: 0.1mM,1.04 ± 0.036
same,NP40-soluble protein abundance,[4]; concentration: 0.5mM,1.062 ± 0.0041
same,NP40-soluble protein abundance,[4]; concentration: 1mM,1.07 ± 0.014
same,NP40-soluble protein abundance,[4]; concentration: 2mM,1.048 ± 0.0046
same,NP40-soluble protein abundance,[4]; concentration: 4mM,1.05 ± 0.076
same,NP40-soluble protein abundance,[4]; concentration: 6mM,1.06 ± 0.019
same,NP40-soluble protein abundance,[4]; concentration: 8mM,1.02 ± 0.041
same,NP40-soluble protein abundance,[4]; concentration: 10mM,1 ± 0.013
same,NP40-soluble protein abundance,[5]; concentration: 0.1mM,0.983 ± 0.026
same,NP40-soluble protein abundance,[5]; concentration: 0.5mM,1 ± 0.025
same,NP40-soluble protein abundance,[5]; concentration: 1mM,0.95 ± 0.046
same,NP40-soluble protein abundance,[5]; concentration: 2mM,0.922 ± 0.036
same,NP40-soluble protein abundance,[5]; concentration: 4mM,0.924 ± 0.052
same,NP40-soluble protein abundance,[5]; concentration: 6mM,0.901 ± 0.057
same,NP40-soluble protein abundance,[5]; concentration: 8mM,0.917 ± 0.025
same,NP40-soluble protein abundance,[5]; concentration: 10mM,0.892 ± 0.043
same,NP40-soluble protein abundance,[6]; concentration: 0.1mM,0.988 ± 0.023
same,NP40-soluble protein abundance,[6]; concentration: 0.5mM,0.964 ± 0.06

# An excerpt of these results, tab-delimited:
smiles	measurement	setting	value
Nc1nc2c(ncn2[C@@H]2O[C@H](COP(=O)(O)OP(=O)(O)OP(=O)(O)O)[C@@H](O)[C@H]2O)c(=O)[nH]1 [guanosine triphosphate]	NP40-soluble protein abundance	[3]; concentration: 10mM	0.896 ± 0.066
same	NP40-soluble protein abundance	[4]; concentration: 0.1mM	1.04 ± 0.036
same	NP40-soluble protein abundance	[4]; concentration: 0.5mM	1.062 ± 0.0041
same	NP40-soluble protein abundance	[4]; concentration: 1mM	1.07 ± 0.014
